This experiment concerns the target FT with C-terminal GFP (Arabidopsis thaliana) (UniProt Q9SXZ2). Kind of experiment: co-IP; co-agroinfiltration of N. benthamiana leaves in pairs; GFP-tagged FT or TFL1 precipitated with anti-GFP nanobody beads (GFP-trapA); 5xMyC-tagged proteins detected with anti-MyC.

Amino acid sequences for entries named in this document (tags omitted).
UniProt Q9SXZ2: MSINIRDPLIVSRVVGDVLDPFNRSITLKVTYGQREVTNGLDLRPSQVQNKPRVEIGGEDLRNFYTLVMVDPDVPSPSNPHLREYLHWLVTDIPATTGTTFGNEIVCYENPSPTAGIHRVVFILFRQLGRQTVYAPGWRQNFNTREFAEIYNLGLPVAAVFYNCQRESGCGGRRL
UniProt Q39057: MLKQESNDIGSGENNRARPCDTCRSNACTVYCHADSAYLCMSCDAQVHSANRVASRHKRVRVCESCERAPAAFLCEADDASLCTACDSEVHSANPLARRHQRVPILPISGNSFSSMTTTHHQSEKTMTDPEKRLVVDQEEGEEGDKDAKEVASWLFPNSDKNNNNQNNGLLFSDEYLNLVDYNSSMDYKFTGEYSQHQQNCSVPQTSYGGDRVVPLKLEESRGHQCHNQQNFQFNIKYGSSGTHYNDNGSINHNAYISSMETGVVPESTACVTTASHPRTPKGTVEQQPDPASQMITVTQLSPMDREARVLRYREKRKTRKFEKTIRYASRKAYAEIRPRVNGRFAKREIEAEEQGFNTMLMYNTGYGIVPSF

No constants are given. Whether binding was seen depends on the method and setting. Binding seen in cells or lysates may run through a third protein.

As for “CONSTANS (CO) with N-terminal 5xMyC (from UniProt Q39057 1-373)”, the binding result is “no binding”.
